Data on seven substances can be found in patent US20020119917A1 (priority 1996, published 2002).

Data set [1] is described as follows: general procedure: Fmoc solid-phase peptide synthesis; Wang resin preloaded with N-Fmoc C-terminal amino acid (0.3-0.7 mmol/g); rink amide for peptides 11-14; PyBop / 4-methyl-morpholine (NMM). As to conditions: for final HPLC purity / isolated mass: whole synthesis; for final HPLC purity: analytical RP-HPLC, Lichrospher-100 RP-18, UV 220 nm, scale of the general procedure 12.5 μmol; for isolated mass: scale 12.5 μmols.

The nature of data set [2]: general procedure: Fmoc solid-phase peptide synthesis; rink amide; PyBop / 4-methyl-morpholine (NMM). As to conditions: whole synthesis, scale 12.5 μmols.
Data set [3] can be described thus: general procedure: Fmoc solid-phase peptide synthesis; Wang resin; PyBop / 4-methyl-morpholine (NMM). Conditions: whole synthesis, scale 12.5 μmol.

For “1-adamantyl-NH—CO-Val-Thr-Val-Ala-Pro-Val-His-Ile-OH”, in data set [1], the “final HPLC purity” value was “above 97%” and the isolated mass result is “approx. 10 mg”. On to “CH3(CH2)6CO-Val-Thr-Val-Ala-Pro-Val-His-Ile-OH”, for which, in data set [1], the “final HPLC purity” value was “above 98%” and the isolated mass result was “approx. 10 mg”. In the same order, the values of “CH3CONH(CH2)5CO-Val-Thr-Val-Ala-Pro-Val-His-Ile-OH” are “above 97%” and “approx. 12 mg”. As for “CH3OCO(CH2)2CO-Val-Thr-Val-Ala-Pro-Val-His-Ile-OH”, in data set [1], the “final HPLC purity” value was “above 98%” and the isolated mass result was “approx. 10 mg”.

In data set [1] (conjugation step, one disulfide bridge, sequence written open), “Gly79-Ser-Glu-Ile-Leu-Phe-Glu-Val-Pro-Glu-Val-Thr-Val-Ala-Pro-Val-His-Ile-Cys97-Cys36-His-Leu-Phe39” gave a conjugation yield of 75%. H-VTVAPVHI-NH2: the isolated mass result in data set [2] is on record as “approx. 8 mg”. Besides, the “final HPLC purity” value in data set [1] is given as “above 98%”. H-VTVAPVHI-OH: in data set [3], the isolated mass result was “approx. 12 mg”. Also, the “final HPLC purity” value in data set [1] is recorded as “above 99%”.
